Record: PubChem BioAssay AID1224826 (NIAID, 2016)
Here is an unselected part of about 17,000 deposited reagents. Over the whole deposit, about 1,110 (6.6%) are marked active. 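Active means lowered or raised reporter signal; replicate intensities are raw and not normalised per plate.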 No sequences are given here.

Screen: 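Knock-downs that raise or lower Tnf reporter signal after endotoxin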 (primary screen)
Cells: RAW264.7 G9 macrophages from mouse bearing reporters for p65 (GFP) and the Tnf promoter (mCherry)
Knock-down reagent: siRNA pool against mouse genes, 100 nM
Time to read-out: 16 h of LPS stimulation, after 2 days of siRNA transfection
Challenge: bacterial lipopolysaccharide (Salmonella minnesota R595), 10 ng/ml
Read-out: 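Imaged Tnf reporter mCherry in nuclei, minus background, normalised per plate to the median and expressed as robust z-scores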
Direction: Tnf reporter robust z-score: higher = stronger Tnf promoter reporter signal after LPS; Tnf reporter intensity: higher = stronger Tnf promoter reporter signal
Call rule: 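a well counts as active at a score of -1.3 or below (Tlr4 knock-down control median) or above 3 (raised signal); controls and wells holding fewer than 50 cells are excluded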
Calls: active = Tnf reporter clearly lowered or raised; inactive = no clear change in Tnf reporter

gene | Tnf reporter robust z-score | fewer than 50 cells in well | Tnf reporter intensity, replicate 1 | Tnf reporter intensity, replicate 2 | call
Kdm8 (lysine (K)-specific demethylase 8) | – | fewer than 50 cells per well; well left out of calls | 101 | 27.8 | inactive
Sesn1 (sestrin 1) | -0.3 | enough cells in well | 227 | 213 | inactive
Irx5 (Iroquois homeobox 5) | 0.32 | enough cells in well | 221 | 198 | inactive
Or56a3b (olfactory receptor family 56 subfamily A member 3B) | -0.55 | enough cells in well | 89.8 | 83.2 | inactive
Or4c121 (olfactory receptor family 4 subfamily C member 121) | 1.05 | enough cells in well | 212 | 237 | inactive
Slc9a4 | -0.95 | enough cells in well | 74.2 | 61.6 | inactive
Gstm5 (glutathione S-transferase, mu 5) | -0.82 | enough cells in well | 211 | 147 | inactive
Vegfa (vascular endothelial growth factor A) | 0.18 | enough cells in well | 238 | 251 | inactive
Tbc1d20 (TBC1 domain family, member 20) | -0.42 | enough cells in well | 133 | 64.6 | inactive
Ubr1 (ubiquitin protein ligase E3 component n-recognin 1) | -0.7 | enough cells in well | 170 | 182 | inactive
Fam216b (family with sequence similarity 216, member B) | 0.38 | enough cells in well | 211 | 168 | inactive
Unc5d (unc-5 netrin receptor D) | 0.55 | enough cells in well | 136 | 109 | inactive
Slc38a10 | – | fewer than 50 cells per well; well left out of calls | 114 | 48.8 | inactive
Btg3 (BTG anti-proliferation factor 3) | 0.95 | enough cells in well | 199 | 203 | inactive
Gtf2e2 | -0.15 | enough cells in well | 242 | 225 | inactive
Gna14 (guanine nucleotide binding protein, alpha 14) | 0.05 | enough cells in well | 208 | 320 | inactive
Arfgap1 (ARF GTPase activating protein 1) | – | fewer than 50 cells per well; well left out of calls | 69 | 150 | inactive
Or6c75 (olfactory receptor family 6 subfamily C member 75) | – | fewer than 50 cells per well; well left out of calls | 28.3 | 59.6 | inactive
Zfp711 (zinc finger protein 711) | -0.96 | enough cells in well | 129 | 108 | inactive
Catsperg2 (cation channel sperm associated auxiliary subunit gamma 2) | 0.51 | enough cells in well | 249 | 28.3 | inactive
Msx1 (msh homeobox 1) | -0.98 | enough cells in well | 183 | 132 | inactive
Vmn1r46 (vomeronasal 1 receptor 46) | 1.13 | enough cells in well | 162 | 77.4 | inactive
Arrdc1 (arrestin domain containing 1) | -0.87 | enough cells in well | 137 | 100 | inactive
Ripply3 (ripply transcriptional repressor 3) | -0.24 | enough cells in well | 143 | 125 | inactive
Oxtr (oxytocin receptor) | -0.72 | enough cells in well | 247 | 55 | inactive
Iqch (IQ motif containing H) | -0.63 | enough cells in well | 147 | 121 | inactive
Mcpt2 (mast cell protease 2) | 0.01 | enough cells in well | 176 | 159 | inactive
Stambp (STAM binding protein) | 1.32 | enough cells in well | 210 | 82.9 | inactive
Mgmt (O-6-methylguanine-DNA methyltransferase) | -0.34 | enough cells in well | 193 | 109 | inactive
Chuk (conserved helix-loop-helix ubiquitous kinase) | -0.69 | enough cells in well | 139 | 131 | inactive
Tnmd (tenomodulin) | – | fewer than 50 cells per well; well left out of calls | 92.6 | 0 | inactive

The list goes on, starting with the last 2 of the part before.
gene | Tnf reporter robust z-score | fewer than 50 cells in well | Tnf reporter intensity, replicate 1 | Tnf reporter intensity, replicate 2 | call
Chuk (conserved helix-loop-helix ubiquitous kinase) | -0.69 | enough cells in well | 139 | 131 | inactive
Tnmd (tenomodulin) | – | fewer than 50 cells per well; well left out of calls | 92.6 | 0 | inactive
Mcfd2 (multiple coagulation factor deficiency 2) | 1.71 | enough cells in well | 340 | 197 | inactive
Chst14 (carbohydrate sulfotransferase 14) | -1.21 | enough cells in well | 149 | 86.2 | inactive
Rassf4 (Ras association (RalGDS/AF-6) domain family member 4) | 0.45 | enough cells in well | 153 | 145 | inactive
Ube2l3 (ubiquitin-conjugating enzyme E2L 3) | 0.91 | enough cells in well | 283 | 320 | inactive
Frmd4b (FERM domain containing 4B) | 1.23 | enough cells in well | 253 | 205 | inactive
Dok5 (docking protein 5) | -0.52 | enough cells in well | 190 | 170 | inactive
H2-Aa (histocompatibility 2, class II antigen A, alpha) | -0.25 | enough cells in well | 266 | 188 | inactive
Rffl (ring finger and FYVE like domain containing protein) | -1.95 | enough cells in well | 49.6 | 50.5 | active
Fam241a (family with sequence similarity 241, member A) | 0.47 | enough cells in well | 223 | 153 | inactive
Ube3a (ubiquitin protein ligase E3A) | 0.85 | enough cells in well | 288 | 306 | inactive
Exoc4 (exocyst complex component 4) | – | fewer than 50 cells per well; well left out of calls | 86.3 | 83.2 | inactive
Atp6v0e2 (ATPase, H+ transporting, lysosomal V0 subunit E2) | -0.02 | enough cells in well | 336 | 55.5 | inactive
Ash2l (ASH2 like histone lysine methyltransferase complex subunit) | 0.14 | enough cells in well | 154 | 197 | inactive
Aph1b (aph1 homolog B, gamma secretase subunit) | – | fewer than 50 cells per well; well left out of calls | 224 | 78.8 | inactive
Or5b104 (olfactory receptor family 5 subfamily B member 104) | -1.14 | enough cells in well | 117 | 88.2 | inactive
Nckap1 (NCK-associated protein 1) | -0.42 | enough cells in well | 233 | 171 | inactive
Atp2b2 (ATPase, Ca++ transporting, plasma membrane 2) | -0.56 | enough cells in well | 125 | 147 | inactive
Kdm3b (KDM3B lysine (K)-specific demethylase 3B) | 0.63 | enough cells in well | 277 | 129 | inactive
Slc15a4 | 0.18 | enough cells in well | 129 | 83.5 | inactive
Mtif3 (mitochondrial translational initiation factor 3) | -1.25 | enough cells in well | 148 | 39.3 | inactive
Eef1d (eukaryotic translation elongation factor 1 delta) | 1.52 | enough cells in well | 336 | 139 | inactive
Obox6 (oocyte specific homeobox 6) | 1.6 | enough cells in well | 349 | 183 | inactive
Cyb5rl (cytochrome b5 reductase-like) | 0.6 | enough cells in well | 195 | 86.8 | inactive
Kcns1 (K+ voltage-gated channel, subfamily S, 1) | 0.09 | enough cells in well | 229 | 168 | inactive
Crip3 (cysteine-rich protein 3) | -0.75 | enough cells in well | 177 | 90.8 | inactive
A030005L19Rik (RIKEN cDNA A030005L19 gene) | -0.1 | enough cells in well | 179 | 133 | inactive
Neurl1b (neuralized E3 ubiquitin protein ligase 1B) | -0.21 | enough cells in well | 125 | 118 | inactive
